Consider 33 molecules from PubChem BioAssay AID248 (DTP/NCI, 2004).

The list is a part of this screen's results and no random one: it is rich in T/C values a quarter to a half above the control, in often repeated tests (any T/C) and in doses without a T/C. Further doses and runs are listed elsewhere. T/C gives the treated animals as a percentage of the vehicle group. Some doses have a count of surviving animals in place of a T/C: the source files T/C as zero there, which appears to mark a toxic dose or a test without result, not a measured value. Some survivor counts are full or nearly so, which does not show that the dose was tolerated: the source hardly ever lists a survival T/C far under the control, and the zero likely stands for such cases as well. Counts of survivors are from the toxicity check (mostly the fifth day) where no day follows; animals may have died later. Schedule codes are those of the source, read here as Q, the interval in days (D) or hours (H), X, the number of doses. Some entries hold several experiments; the results are listed from low to high. Some schedules carry Z or #; the key to these is not given. Where survival is the endpoint, the PubChem record calls one and a half times the control and up active, and a quarter to a half above the control has no call in these data; cut-offs in other NCI protocols can differ. Counts like (3×) say how often a value occurs here. Some T/C values carry the count of animals alive at the toxicity check (mostly the fifth day); where none is given, no animal had died by that day.

In this experiment the test system is L1210 leukemia ip in BDF1 mice, survival T/C. In words: NCI In Vivo Anticancer Drug Screen. Data for tumor model L1210 Leukemia (intraperitoneal) in B6D2F1 (BDF1) mice. As to conditions: T/C endpoint: mean survival time, higher T/C = longer survival.
Where [1] appears, read: dose: 400.0 mg/kg/injection, schedule: Q01DX001 (ip), vehicle: saline.
[2] abbreviates: dose: 400.0 mg/kg/injection, schedule: Q04DX003 (ip), vehicle: Klucel (hydroxypropylcellulose) (HPC).
Setting [3] is: dose: 400.0 mg/kg/injection, schedule: Q04DX003 (ip), vehicle: saline with Tween-80.
Setting [4] is: dose: 200.0 mg/kg/injection, schedule: Q04DX002 (ip), vehicle: DMSO.
The mark [5] stands for this setting: dose: 100.0 mg/kg/injection, schedule: Q04DX003 (ip), vehicle: saline with Tween-80.
The mark [6] stands for this setting: dose: 400.0 mg/kg/injection, schedule: Q01DX009 (ip), vehicle: Klucel (hydroxypropylcellulose) (HPC).
Setting [7] is: dose: 300.0 mg/kg/injection, schedule: Q01DX001 (ip), vehicle: saline.
[8] abbreviates: dose: 400.0 mg/kg/injection, schedule: Q04DX002 (ip), vehicle: saline with Tween-80.

On to `CCCCCc1ccc(C)cc1OC(=O)CCl`, for which the survivor count (dose: 94.0 mg/kg/injection, schedule: Q01DX Z (ip), vehicle: methylcellulose (MC)) is reported as 3 of 6.

Take `CCCSC(=O)N(CC)C(=NCC)c1ccc(NC(=O)c2ccc(C(=O)Nc3ccc(C(=NCC)N(CC)C(=O)SCCC)cc3)cc2)cc1`: the survivor count (dose: 37.5 mg/kg/injection, schedule: Q01DX015 (ip), vehicle: methylcellulose (MC)) is reported as 6 of 6 and the survivor count (dose: 300.0 mg/kg/injection, schedule: Q01DX015 (ip), vehicle: methylcellulose (MC)) was 6 of 6.

Consider `O/N=C/c1ccc(Cl)cc1`, for which the survivor count under setting [1] is listed as 2 of 4.

Take `[I][Pb]([c]1ccccc1)([c]1ccccc1)[c]1ccccc1`: the survivor count is recorded as 0 of 6 (dose: 50.0 mg/kg/injection, schedule: Q04DX003 (ip), vehicle: Klucel (hydroxypropylcellulose) (HPC)); 0 of 6 (dose: 100.0 mg/kg/injection, schedule: Q04DX003 (ip), vehicle: Klucel (hydroxypropylcellulose) (HPC)); 0 of 6 (dose: 200.0 mg/kg/injection, schedule: Q04DX003 (ip), vehicle: Klucel (hydroxypropylcellulose) (HPC)); 0 of 6 under setting [2].

Turning to `CCCCOB(OCCCC)c1cccc(C(F)(F)F)c1`, the survivor count (dose: 400.0 mg/kg/injection, schedule: Q01DX009 (ip), vehicle: saline) was 0 of 6.

Regarding `CCCCC(CC)C1N(C)CCCN1C` (centres undefined), the survivor count under setting [3] was 0 of 6.

`CCSc1nc(C)cc(Cl)n1`: under setting [3], the survivor count is on record as 4 of 6.

As for `CCN(C(C)=O)c1ccc(S(=O)(=O)Cl)cc1`, the survivor count under setting [3] is 1 of 6.

On to `Clc1ccccc1/C=C/c1ccccn1`, for which the survivor count runs as follows: (dose: 50.0 mg/kg/injection, schedule: Q04DX002 (ip), vehicle: DMSO) 3 of 3; (dose: 100.0 mg/kg/injection, schedule: Q04DX002 (ip), vehicle: DMSO) 2 of 3; under setting [4], 2 of 3; (dose: 400.0 mg/kg/injection, schedule: Q04DX002 (ip), vehicle: DMSO) 0 of 3 and 1 of 3. For the same molecule, the T/C under setting [4] was 125 % of control [2 of 3 alive].

Take `CC(C)CC(CC(C)C)NCCOC(=O)c1ccc(N)cc1`: where the note is “dose: 300.0 mg/kg/injection, schedule: Q01DX001 (ip), vehicle: other”, the survivor count is on record as 1 of 6.

Turning to `Cc1ccc(SS(=O)(=O)c2ccc(C)cc2)cc1`, for the setting “dose: 400.0 mg/kg/injection, schedule: Q01DX001 (ip), vehicle: Klucel (hydroxypropylcellulose) (HPC)”, the survivor count is 3 of 3.

Consider `NC(=O)c1[nH]cnc1N`, for which the T/C runs as follows: (dose: 31.3 mg/kg/injection, schedule: Q06HX008 (ip), vehicle: steroid suspending solution, evaluated on day 5) 102 % of control; (dose: 31.3 mg/kg/injection, schedule: Q06HX008 (ip), vehicle: steroid suspending solution, evaluated on day 6) 93 % of control; (dose: 31.3 mg/kg/injection, schedule: Q06HX008 (ip), vehicle: steroid suspending solution, evaluated on day 19) 102 % of control; (dose: 31.3 mg/kg/injection, schedule: Q06HX008 (ip), vehicle: steroid suspending solution, evaluated on day 60) 93 and 101 % of control; (dose: 62.5 mg/kg/injection, schedule: Q06HX008 (ip), vehicle: steroid suspending solution, evaluated on day 5) 102 % of control; (dose: 62.5 mg/kg/injection, schedule: Q06HX008 (ip), vehicle: steroid suspending solution, evaluated on day 6) 102 % of control. Moreover, the T/C reads like this: (dose: 62.5 mg/kg/injection, schedule: Q06HX008 (ip), vehicle: steroid suspending solution, evaluated on day 19) 102 % of control; (dose: 62.5 mg/kg/injection, schedule: Q06HX008 (ip), vehicle: steroid suspending solution, evaluated on day 60) 97 and 102 % of control; (dose: 125.0 mg/kg/injection, schedule: Q06HX008 (ip), vehicle: steroid suspending solution, evaluated on day 5) 103 % of control; (dose: 125.0 mg/kg/injection, schedule: Q06HX008 (ip), vehicle: steroid suspending solution, evaluated on day 6) 96 % of control; (dose: 125.0 mg/kg/injection, schedule: Q06HX008 (ip), vehicle: steroid suspending solution, evaluated on day 19) 103 % of control; (dose: 125.0 mg/kg/injection, schedule: Q06HX008 (ip), vehicle: steroid suspending solution, evaluated on day 60) 96 % of control (2×). The T/C was 102 % of control (dose: 250.0 mg/kg/injection, schedule: Q06HX008 (ip), vehicle: steroid suspending solution, evaluated on day 5); 171 % of control (dose: 250.0 mg/kg/injection, schedule: Q06HX008 (ip), vehicle: steroid suspending solution, evaluated on day 6); 102 % of control (dose: 250.0 mg/kg/injection, schedule: Q06HX008 (ip), vehicle: steroid suspending solution, evaluated on day 19); 93 and 171 % of control (dose: 250.0 mg/kg/injection, schedule: Q06HX008 (ip), vehicle: steroid suspending solution, evaluated on day 60).

In the case of `Nc1ncnc(N)c1NC(=O)c1cccc(Br)c1`, the survivor count (dose: 50.0 mg/kg/injection, schedule: Q04DX003 (ip), vehicle: saline with Tween-80) is recorded as 1 of 6 and the survivor count under setting [5] is given as 0 of 6.

Turning to `CN(C)CCCNC(=S)Nc1ccc(Cl)cc1`, under “dose: 200.0 mg/kg/injection, schedule: Q01DX009 (ip), vehicle: saline with Tween-80”, the survivor count is recorded as 0 of 3.

Take `O=C1/C(=C/c2ccc3c(c2)OCO3)C2CCC(N2)/C1=C\c1ccc2c(c1)OCO2`: where the note is “dose: 200.0 mg/kg/injection, schedule: Q01DX001 (ip), vehicle: other”, the survivor count is recorded as 3 of 3.

For `CN(C)c1ccc(/C=N/NC(=O)C2CCCO2)c(Cl)c1` (centres undefined), the survivor count under setting [6] was 0 of 6.

Consider `CC(C)C(=Nc1ccc(Cl)c(Cl)c1)N(C)C`, for which, where the note is “dose: 100.0 mg/kg/injection, schedule: Q01DX Z (ip), vehicle: methylcellulose (MC)”, the survivor count is 2 of 6.

As to `CC(C)CNC(=O)Nc1ccccc1`, under setting [7], the survivor count is listed as 3 of 6.

For `NNP(=O)(N1CCCCC1)N1CCCCC1`, the survivor count under setting [8] is 0 of 3.

`N=C(N)SC1c2cc(Cl)ccc2-c2c(Cl)cc(Cl)cc21` (centres undefined): the survivor count (dose: 400.0 mg/kg/injection, schedule: Q01DX001 (ip), vehicle: carboxymethylcellulose (CMC)) is on record as 0 of 4.

As for `OC(c1ccccc1)(c1ccccc1)c1cccnc1`, the survivor count (dose: 300.0 mg/kg/injection, schedule: Q04DX002 (ip), vehicle: saline) was 3 of 3.

Turning to `S=C([S][Sn]([S]C(=S)N(c1ccccc1)c1ccccc1)([c]1ccccc1)[c]1ccccc1)N(c1ccccc1)c1ccccc1`, the survivor count (dose: 400.0 mg/kg/injection, schedule: Q01DX001 (ip), vehicle: steroid suspending solution) was 2 of 6.

`CC1CCCC(C)N1C1=NCCO1` (centres undefined): the survivor count was 0 of 6 under setting [5]; 0 of 6 (dose: 200.0 mg/kg/injection, schedule: Q04DX003 (ip), vehicle: saline with Tween-80); 0 of 6 under setting [3].

Turning to `CN/N=C1\CCC2C3CCc4cc(O)ccc4C3CCC12C` (centres undefined), the survivor count under setting [6] is 6 of 6.

Take `CC(C)(C)C1CCC(NC(=O)CCl)CC1` (centres undefined): the survivor count (dose: 200.0 mg/kg/injection, schedule: Q01DX009 (ip), vehicle: Klucel (hydroxypropylcellulose) (HPC)) is on record as 5 of 6.

Regarding `CC1CC=CC(N2C(=O)c3ccccc3C2=O)C1` (centres undefined), for the setting “dose: 100.0 mg/kg/injection, schedule: Q01DX001 (ip), vehicle: carboxymethylcellulose (CMC)”, the survivor count was 4 of 4.

Regarding `O=[N+]([O-])c1ccc(NCCO)c([N+](=O)[O-])c1`, the survivor count (dose: 400.0 mg/kg/injection, schedule: Q01DX009 (ip), vehicle: saline with Tween-80) is 2 of 6.

Turning to `COS(=O)(=O)CCCCCC[N+](C)(C)C`, the survivor count under setting [1] was 2 of 4.

Regarding `Nc1nc(N)nc(COc2ccccc2Cl)n1`, the survivor count (dose: 400.0 mg/kg/injection, schedule: Q04DX002 (ip), vehicle: Klucel (hydroxypropylcellulose) (HPC)) is 3 of 3.

In the case of `O=C1NC(=O)C(=O)C(=O)N1`, the survivor count under setting [1] was 3 of 6.

For `CN(C)C(=O)C1(c2ccc(Cl)cc2)CCN(CCCC(=O)c2ccc(F)cc2)CC1`, under setting [2], the survivor count is on record as 4 of 4.

On to `Cn1nc(SCc2ccccc2)c(=O)[nH]c1=O`, for which the survivor count under setting [7] is recorded as 0 of 6.

On to `Cc1ccc(O)c(C(c2cc(S(=O)(=O)O)c(O)cc2C)N2CN(C(c3cc(S(=O)(=O)O)c(O)cc3C)c3cc(C)ccc3O)C2=O)c1` (centres undefined), for which, under setting [8], the survivor count was 0 of 3.
